Test results published in patent US12257237B2 (priority 2017, dated 2025).
“And” between values parts separate entries of the source, which are not always exact repeats. Equal entries are not always repeated. Further values from the same series stand in other lists.

Test system: DD013 dedifferentiated liposarcoma
Test: Antitumour activity in DD013 dedifferentiated liposarcoma xenograft model
Type: in vivo, Athymic nude mice
Experimental: Experiments were performed with female Athymic nude mice, 9-10 weeks old obtained from Harlan Laboratories (Udine, Italy). They were maintained under Specific Pathogen Free conditions with constant temperature and humidity, according to the institutional guidelines.
Tumour growth mice was monitored two/three times a week (depending on tumour growth rate, to avoid unnecessary stress to the animals) by Vernier caliper. Mice were sacrificed when tumour reached a mean weight of 2±0.5 gr. The antitumour activity will be expressed as T/C %, where T and C were the mean tumour weight of treated and control groups, respectively. Mice were monitored daily and weighted at least two times a week. Tolerability was evaluated on the basis of body weight loss (BWL) and clinical observation.
Statistical analysis was performed with GraphPad Prism version 6.01 software (GraphPad software, Inc., La Jolla, CA, USA). ANOVA test was performed to evaluate if there were statistically significant differences between treated and control groups.
Briefly, xenografts were obtained by transplanting 3-4 mm tumour fragments s.c. in the flanks of mice. The growing tumour masses were measured with the aid of a Vernier caliper, and the tumour weights (TW, 1 mm^3=1 mg) were calculated by the formula: length×(width) 2/2. When tumour load achieved about 200-400 mg, mice were randomized into the experimental groups.

Cn1c(CCCCCCC(=O)NO)nc2cc(N(CCCl)CCCl)ccc21 [EDO-S101, 7-(5-(bis(2-chloroethyl)amino)-1-methyl-1H-benzo[d]imidazol-2-yl)-N-hydroxyheptanamide]
DD0113 tumour weight, individual mouse (EDO40: EDO-S101 40 mg/kg q7dx3, day 87 from inoculum, 40 mg/kg): 2103.7 mg and 1649.4 mg and 526.5 mg and 1294.1 mg and 457.1 mg and 994.3 mg and 1055.8 mg and 95.8 mg and 245.9 mg | DD0113 tumour weight, individual mouse (EDO40: EDO-S101 40 mg/kg q7dx3, day 90 from inoculum, 40 mg/kg): 2135.1 mg and 1918.5 mg and 598.6 mg and 1450.6 mg and 463.8 mg and 1104.6 mg and 1165.7 mg and 119.3 mg and 249.5 mg | DD0113 tumour weight, individual mouse (EDO40: EDO-S101 40 mg/kg q7dx3, day 94 from inoculum, 40 mg/kg): 2516.4 mg and 2036.1 mg and 820.3 mg and 1686.1 mg and 542.4 mg and 1322.5 mg and 1662.8 mg and 133.6 mg and 318.3 mg | DD0113 tumour weight, individual mouse (EDO40: EDO-S101 40 mg/kg q7dx3, day 98 from inoculum, 40 mg/kg): 2716.0 mg and 1993.4 mg and 913.4 mg and 1775.6 mg and 446.5 mg and 1827.2 mg and 1853.1 mg and 145.4 mg and 371.6 mg | DD0113 tumour weight, individual mouse (EDO40: EDO-S101 40 mg/kg q7dx3, day 100 from inoculum, 40 mg/kg): 3162.4 mg and 2274.9 mg and 963.9 mg and 2276.4 mg and 533.5 mg and 2007.9 mg and 2178.4 mg and 160.4 mg and 419.7 mg | DD0113 tumour weight, individual mouse (EDO60: EDO-S101 60 mg/kg q7dx3, day 23 from inoculum, 60 mg/kg): 390.7 mg and 270.8 mg and 256.0 mg and 208.0 mg and 186.9 mg and 149.8 mg and 137.4 mg and 98.0 mg and 95.4 mg | DD0113 tumour weight, individual mouse (EDO60: EDO-S101 60 mg/kg q7dx3, day 26 from inoculum, 60 mg/kg): 581.5 mg and 439.5 mg and 349.4 mg and 277.6 mg and 282.9 mg and 149.7 mg and 162.1 mg and 93.0 mg and 117.1 mg | DD0113 tumour weight, individual mouse (EDO60: EDO-S101 60 mg/kg q7dx3, day 29 from inoculum, 60 mg/kg): 713.8 mg and 542.7 mg and 408.5 mg and 245.2 mg and 337.8 mg and 127.5 mg and 180.6 mg and 129.5 mg and 107.7 mg | DD0113 tumour weight, individual mouse (EDO60: EDO-S101 60 mg/kg q7dx3, day 33 from inoculum, 60 mg/kg): 959.2 mg and 709.9 mg and 434.0 mg and 230.8 mg and 388.5 mg and 156.7 mg and 179.5 mg and 185.1 mg and 114.7 mg | DD0113 tumour weight, individual mouse (EDO60: EDO-S101 60 mg/kg q7dx3, day 36 from inoculum, 60 mg/kg): 752.3 mg and 694.9 mg and 374.9 mg and 195.0 mg and 320.6 mg and 151.2 mg and 215.2 mg and 208.1 mg and 95.8 mg | DD0113 tumour weight, individual mouse (EDO60: EDO-S101 60 mg/kg q7dx3, day 40 from inoculum, 60 mg/kg): 858.2 mg and 638.0 mg and 442.3 mg and 178.1 mg and 462.9 mg and 195.4 mg and 211.0 mg and 215.3 mg and 139.7 mg | DD0113 tumour weight, individual mouse (EDO60: EDO-S101 60 mg/kg q7dx3, day 43 from inoculum, 60 mg/kg): 788.1 mg and 594.1 mg and 396.4 mg and 196.5 mg and 359.1 mg and 165.1 mg and 214.6 mg and 247.2 mg and 94.4 mg | DD0113 tumour weight, individual mouse (EDO60: EDO-S101 60 mg/kg q7dx3, day 47 from inoculum, 60 mg/kg): 784.4 mg and 617.7 mg and 372.6 mg and 162.6 mg and 384.0 mg and 150.5 mg and 209.0 mg and 194.4 mg and 96.9 mg | DD0113 tumour weight, individual mouse (EDO60: EDO-S101 60 mg/kg q7dx3, day 50 from inoculum, 60 mg/kg): 753.8 mg and 533.9 mg and 327.6 mg and 176.0 mg and 334.2 mg and 138.1 mg and 199.7 mg and 257.7 mg and 77.1 mg | DD0113 tumour weight, individual mouse (EDO60: EDO-S101 60 mg/kg q7dx3, day 54 from inoculum, 60 mg/kg): 868.2 mg and 564.0 mg and 225.0 mg and 134.2 mg and 413.0 mg and 123.8 mg and 227.1 mg and 253.8 mg and 80.6 mg | DD0113 tumour weight, individual mouse (EDO60: EDO-S101 60 mg/kg q7dx3, day 58 from inoculum, 60 mg/kg): 862.4 mg and 420.0 mg and 265.4 mg and 150.8 mg and 404.6 mg and 134.5 mg and 187.9 mg and 247.8 mg and 56.8 mg | DD0113 tumour weight, individual mouse (EDO60: EDO-S101 60 mg/kg q7dx3, day 65 from inoculum, 60 mg/kg): 998.1 mg and 352.1 mg and 125.3 mg and 133.1 mg and 350.2 mg and 133.4 mg and 187.4 mg and 278.4 mg and 66.8 mg | DD0113 tumour weight, individual mouse (EDO60: EDO-S101 60 mg/kg q7dx3, day 69 from inoculum, 60 mg/kg): 1344.4 mg and 347.7 mg and 142.7 mg and 96.1 mg and 371.1 mg and 86.2 mg and 191.3 mg and 367.8 mg and 63.8 mg | DD0113 tumour weight, individual mouse (EDO60: EDO-S101 60 mg/kg q7dx3, day 72 from inoculum, 60 mg/kg): 1654.5 mg and 414.7 mg and 188.6 mg and 130.6 mg and 509.4 mg and 157.5 mg and 268.5 mg and 403.5 mg and 86.1 mg | DD0113 tumour weight, individual mouse (EDO60: EDO-S101 60 mg/kg q7dx3, day 75 from inoculum, 60 mg/kg): 1698.0 mg and 457.6 mg and 170.8 mg and 110.6 mg and 516.6 mg and 123.5 mg and 307.7 mg and 441.0 mg and 70.2 mg | DD0113 tumour weight, individual mouse (EDO60: EDO-S101 60 mg/kg q7dx3, day 79 from inoculum, 60 mg/kg): 1977.8 mg and 571.8 mg and 172.6 mg and 132.6 mg and 555.7 mg and 152.1 mg and 256.1 mg and 404.7 mg and 58.1 mg | DD0113 tumour weight, individual mouse (EDO60: EDO-S101 60 mg/kg q7dx3, day 83 from inoculum, 60 mg/kg): 1774.9 mg and 335.3 mg and 86.5 mg and 56.8 mg and 415.0 mg and 71.0 mg and 193.9 mg and 426.4 mg and 32.7 mg | DD0113 tumour weight, individual mouse (EDO60: EDO-S101 60 mg/kg q7dx3, day 87 from inoculum, 60 mg/kg): 1753.1 mg and 396.9 mg and 125.1 mg and 78.1 mg and 442.6 mg and 82.4 mg and 209.1 mg and 423.2 mg and 31.4 mg | DD0113 tumour weight, individual mouse (EDO60: EDO-S101 60 mg/kg q7dx3, day 90 from inoculum, 60 mg/kg): 1903.1 mg and 365.0 mg | DD0113 tumour weight, individual mouse (EDO60: EDO-S101 60 mg/kg q7dx3, day 94 from inoculum, 60 mg/kg): 1967.5 mg and 403.0 mg | DD0113 tumour weight, individual mouse (EDO60: EDO-S101 60 mg/kg q7dx3, day 98 from inoculum, 60 mg/kg): 1939.1 mg and 387.0 mg
